Earlier results as cited in patent US4980343A, “Aminooxodihydroisoindoloquinazoline carcinostatic agents” (Bayer Aktiengesellschaft, priority 1989, dated 1990).
At least one structure is not confirmed: it was looked up by name or label, or the drawing left a doubt.

System: colon 38 carcinoma
Conditions: colon 38 carcinoma in the mouse; U.S. Pat. No. 4,757,072; cited from earlier work

## Nc1ccc2c(c1)CN1C(=O)c3ccccc3C1=N2 [Compound 1, aminooxodihydroisoindoloquinazoline]
  tumor inhibiting properties: excellent tumor inhibiting properties
